Results reported in PubChem BioAssay AID624415 (National Center for Advancing Translational Sciences (NCATS), 2012).
Where “and” joins values, the source holds several entries; their conditions need not be identical. Identical values can stand only once. Among all 390,000 compounds or so, about 60 (0.02%) were called active. Inconclusive results, whose numbers are uncertain, are shown with a selection of clear calls. No stated cut-off is given here; in the data, active means activity change below about -50%; inconclusive means between about -30% and that limit; inactive means weaker than that.

By UniProt entry, the sequences of proteins in these tests, tags left out.
UniProt Q9GZU1, whole entry, looked up: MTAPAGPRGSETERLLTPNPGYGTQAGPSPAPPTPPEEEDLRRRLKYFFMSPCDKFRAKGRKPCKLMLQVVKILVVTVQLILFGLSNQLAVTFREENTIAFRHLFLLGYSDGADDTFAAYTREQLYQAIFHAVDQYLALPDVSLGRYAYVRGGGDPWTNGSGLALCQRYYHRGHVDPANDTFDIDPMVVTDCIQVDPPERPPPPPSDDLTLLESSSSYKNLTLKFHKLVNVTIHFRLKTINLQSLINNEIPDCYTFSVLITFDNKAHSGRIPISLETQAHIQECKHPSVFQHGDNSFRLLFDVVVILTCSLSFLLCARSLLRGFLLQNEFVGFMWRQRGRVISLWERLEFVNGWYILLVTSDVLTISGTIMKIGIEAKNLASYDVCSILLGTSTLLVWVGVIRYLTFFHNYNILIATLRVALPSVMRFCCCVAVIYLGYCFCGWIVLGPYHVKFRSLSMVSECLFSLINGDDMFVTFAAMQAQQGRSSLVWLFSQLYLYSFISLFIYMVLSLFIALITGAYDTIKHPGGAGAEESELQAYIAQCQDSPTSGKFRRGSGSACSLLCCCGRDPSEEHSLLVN

target: Mucolipin-1 (Homo sapiens) (UniProt Q9GZU1); assay: qHTS for Inhibitors of the Human Mucolipin Transient Receptor Potential 1 (TRPML1); settings: TRPML1-inducible cells, Ca2+ dye fluorescence, FDSS; active compounds read low; inhibition of EC80 agonist-evoked calcium signal;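 further: stimulus is agonist 54-4 at its EC80 concentration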
How it was run: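 Tet-induced TRPML1-DL cells loaded with Ca8 no-wash calcium dye were read kinetically on FDSS. Compound addition was followed by EC80 agonist 54-4 (4 uM final); inhibition was read over 110 s.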
On the % scale 0 is the no-effect control and ±100 the full control effect.

SMILES	activity change, negative = inhibition
O=C(C1=C(O)C(=O)N(CCc2ccccc2)C1c1cccs1)c1ccco1 (stereo not given)	inactive: -10.2%
COc1ccc(CCNC(=O)CCN2C(=O)COc3ccccc32)cc1OC	inactive: -9.63%
CCOc1ccc(-c2nnc(SCC(=O)NC3CCCC3)nc2-c2ccc(OCC)c(OC)c2)cc1OC	inconclusive: -31.2%
NC1(C(=O)O)CSSC1	inactive: 2.45%
CC(C)c1ccc(CN(Cc2ccco2)c2cnc(S(C)(=O)=O)nc2C(=O)Nc2ccc(F)cc2)cc1	inactive: 16.5%
COCCCn1c(=O)c2ccccc2n(Cc2ccc(C)cc2)c1=O	inactive: -5.33%
CCN(CC)C(=O)Cn1c(C)c(/C=C/c2cc[n+](C)cc2)c2ccccc21	inconclusive: -35.1%
Cc1ccccc1CN(C)C(C)C(=O)NCc1ccccc1 (stereo not given)	inconclusive: -37.2%
CC1CCCN(CCCNC(=O)c2ccc3c(c2)N(Cc2ccccc2F)C(=O)c2ccccc2S3(=O)=O)C1 (stereo not given)	inactive: -1.36% and inactive: -0.967%
CCc1sc(C(=O)Nc2nccs2)cc1C	inconclusive: -33.9%
CC1(C)CC(NC(=O)Cc2ccccc2[N+](=O)[O-])CC(C)(C)N1	inconclusive: -33.1%
Cc1ccc2c(c1)N(CC(=O)NC1CCCC1)C(=O)c1cccnc1O2	inactive: 3.51%
O=C(OCn1nnc2ccccc2c1=O)c1ccc(S(=O)(=O)N2CCOCC2)cc1	inconclusive: -33.5%
COc1ccc(OC)c(NC(=O)c2cc(S(=O)(=O)NCCc3ccc(Cl)cc3)ccc2F)c1	inconclusive: -30.2%
O=C1CSc2ccc(C(=O)O)cc2N1	inconclusive: -30.2%
C/C(=C\c1ccccc1)CN1CCC(C(=O)N2CCCCC2)CC1	inconclusive: -32.6%
Cc1ccccc1NC(=O)N1CCC(C(=O)c2ccc(F)cc2)CC1	inactive: 1.51%
COc1ccc(Nc2cc(C)nc3c(C)c(C)ccc23)cc1	inconclusive: -32.4%
COc1ccc2c(C)c(CCC(=O)NCc3ccc(Cl)cc3)c(=O)oc2c1C	inconclusive: -31.3%
CCC(C)NC(=O)Cc1c(C)c2cc3c(cc2oc1=O)OC(C)(C)CC3 (stereo not given)	inconclusive: -30.9%
COCCN(CC(=O)NCc1ccccc1)C(=O)CCC(=O)Nc1ccccn1	inconclusive: -34.1%
O=S(=O)(NCC(c1ccco1)S(=O)(=O)c1ccccc1)c1ccccc1 (stereo not given)	inconclusive: -32.8%

SMILES	activity change, negative = inhibition
Cc1ccccc1/C=N/N1CCN(c2ccccc2)CC1	inconclusive: -31%
CCc1ccc(OCC(=O)O/N=C(\N)c2ccccn2)cc1	inactive: 12.4%
CCn1c(C(=O)N2CCCC(C(=O)N3CCN(c4ccccc4)CC3)C2)cc2sccc21 (stereo not given)	inconclusive: -37.8%
CC(=O)c1ccc(N2CCN(C(=O)c3cc(S(=O)(=O)N4CCOCC4)ccc3C)CC2)cc1	inconclusive: -31.8%
O=C1/C(=C/c2ccco2)SC(=S)N1CCC(=O)N1CCCCC1CCO (stereo not given)	inconclusive: -42.6%
Cc1ccc(S(=O)(=O)Nc2cccc3cccnc23)c([N+](=O)[O-])c1	inactive: 27.8%
CN(C)c1ccc(/C=C(\C#N)C(=O)c2ccccc2)cc1	inconclusive: -36.4%
Cc1nn(CCCC(=O)Nc2cccc(C(F)(F)F)c2)c(=O)c2nn(-c3ccccc3)c(C)c12	inactive: -8.99%
CCOC(=O)N1CCN(c2c(N3CCC(N4CCCCC4)CC3)c(=O)c2=O)CC1	inconclusive: -48.2%
COC(=O)c1ccccc1NC(=O)c1cc(CN2CCOCC2)on1	inconclusive: -31%
Cc1ccc(CNc2ncnc3onc(C)c23)cc1	inconclusive: -30.3%
CCOC(=O)C(=O)NCC(c1cccs1)S(=O)(=O)c1ccc(F)cc1 (stereo not given)	inactive: 22%
CCOc1ccc(OCC)c(Nc2cc(C)nc3nc(C)nn23)c1	inconclusive: -30.7%
C[C@H]1C=C(C(=O)NCc2nc3ccccc3[nH]2)O[C@@H](OCc2ccc(CO)cc2)C1	inactive: -1.41%
Cc1ccc(S(=O)(=O)N2CCN(S(C)(=O)=O)C2c2ccccc2)cc1 (stereo not given)	inconclusive: -31.2%
CC(C)(C)c1ccc(C(=O)NCCCNC(=O)c2cccnc2)cc1	inconclusive: -32.3%
Cc1ccc(NC(=O)C2CCCN2S(=O)(=O)c2ccc3c(c2)n(C)c(=O)c(=O)n3C)c(C)c1 (stereo not given)	inconclusive: -30.1%
CCc1ccc2oc(-c3ccc(NC(=O)c4cc(OC)c(OC)c(OC)c4)cc3)nc2c1	inconclusive: -30.6%
CCOC(=O)Cn1c(=O)n(CC2CCCO2)c2nc(-c3ccc(OC)cc3OC)nc(C(N)=O)c21 (stereo not given)	inactive: -14.7%
COc1ccc2c(c1)CCc1c(C(=O)N3CCCc4ccccc43)noc1-2	inactive: -1.51%
COc1ccc(NS(=O)(=O)c2ccc3c(c2)N(C(C)=O)CC(C)S3)c(OC)c1 (stereo not given)	inconclusive: -47.2%
CCCCCNC(=O)c1c[nH]c2ccc(S(=O)(=O)N3CCC(C)CC3)cc2c1=O	active: -50.4%

SMILES	activity change, negative = inhibition
COc1ccc(NC(=O)CCS(=O)(=O)c2cc3c(cc2C)NC(=O)CO3)cc1Cl	inconclusive: -32.8%
COc1cc(NC(=O)C2CCCN(S(=O)(=O)c3cn(C)cn3)C2)cc(OC)c1 (stereo not given)	inconclusive: -35.3%
O=C(c1ccccc1)c1ccc[nH]1	inconclusive: -30.6%
S=C(NCc1ccc(Cl)cc1)NC1CCN(Cc2ccccc2)CC1	inactive: -13.3%
CC1(C)Cc2c(cnn2-c2ccc(F)cc2)C(NC(=O)CCN2CCCC2=O)C1 (stereo not given)	inconclusive: -32.4%
O=C(NCCCO)C(=O)Nc1cc2c3c(c1)CCC(=O)N3CCC2	inactive: 1.09%
COc1ccc(C(=O)N2CCNC(=O)C2CC(=O)Nc2ccc(C)cc2)cc1 (stereo not given)	inconclusive: -38.5%
O=C(Nc1ccc(C(F)(F)F)cc1)c1csc(-c2ccncc2)n1	inconclusive: -35.5%
COc1cc(/C=N/NC(=O)CCc2ccccc2)ccc1O	inactive: -27.7%
Cn1cccc([N+](=O)[O-])c1=O	inconclusive: -32.1%
COc1ccc(C(=O)N(Cc2cc(OC)c(OC)c(OC)c2)C2CCS(=O)(=O)C2)cc1Cl (stereo not given)	inactive: 12.2%
Cc1ccc(-c2nnc(SCC(=O)Nc3ccc(S(=O)(=O)N4CCCCCC4)cc3)o2)cc1	inactive: 3.86%
CCCC(C)C(=O)Nc1nc(C)c(-c2csc(Nc3cc(OC)ccc3OC)n2)s1 (stereo not given)	inconclusive: -33.2%
CC(=O)NC1C(=O)Nc2c1cccc2C(F)(F)F (stereo not given)	inconclusive: -35.7%
CCCCc1ccc(NC(=S)NN2CCOCC2)cc1	inconclusive: -37.5%
CCCCNC(=O)C1(C)CCN1C(=O)c1ccc2c(c1)CCO2 (stereo not given)	inconclusive: -32%
Fc1ccccc1CSc1ncn[nH]1	inconclusive: -32.4%
Cc1cccc(C(=O)NCc2nnc(SC(C)C(=O)Nc3nnc(C)s3)n2C)c1 (stereo not given)	inconclusive: -32.3%
COc1ccc(N2CCN(S(=O)(=O)c3c(C)n(C)c(=O)n(C)c3=O)CC2)cc1	inconclusive: -32.1%
COc1ccc(CC(C)N2CCN(c3ccccc3)CC2)cc1OC (stereo not given)	inconclusive: -38.7%
Cc1ccc(C2(C)NC(=O)N(CC(=O)N3CCN(S(=O)(=O)c4cccc([N+](=O)[O-])c4)CC3)C2=O)cc1 (stereo not given)	inconclusive: -33.2%
O=C(O)COc1ccccc1/C=N/Nc1ccc(S(=O)(=O)Nc2ccc(Cl)cc2)cc1[N+](=O)[O-]	inactive: 12.2%

SMILES	activity change, negative = inhibition
Cn1c(=O)cc(OCCCC(=O)NCc2ccc(F)cc2Cl)c2ccccc21	inconclusive: -39.1%
O=C(NCc1cccs1)Nc1cc(Cl)ccc1Cl	inactive: 10.1%
COc1cccc(NC(=S)N2CCCN(Cc3ccc(F)cc3)C2)c1	inconclusive: -34.5%
Cc1ccn2c(CNCC3OCCc4ccccc43)c(C(=O)N3CCCCCC3)nc2c1 (stereo not given)	inactive: 16.2%
Cc1ccc(S(=O)(=O)NC(=O)c2cc(C)n(C3CC3)c2C)cc1	inconclusive: -30.5%
COCCN1Cc2cccc(C(=O)Nc3cc(C)cc(C)c3)c2C1=O	inconclusive: -33.5%
Cc1ccc(S(=O)(=O)n2[nH]c(=O)cc2N)cc1	inconclusive: -34.6%
Cc1ccc(NC(=O)CN2C(=O)CCSc3ccccc32)c(C)c1	inconclusive: -34%
O=C(CN1CCN(Cc2ccc(F)cc2)C1=O)NCc1ccc(F)cc1	inconclusive: -33.7%
Cc1onc(-c2ccccc2)c1CNS(=O)(=O)c1ccc(F)cc1F	inconclusive: -44.5%
Cc1cccc(NC(=O)/C(C#N)=C/c2ccccc2Cl)n1	inconclusive: -31.2%
CCN1/C(=C\c2ccc3ccccc3[n+]2CC)Sc2cc(C)ccc21	inconclusive: -31.6%
O=[N+]([O-])c1cc(-c2nc(-c3ccccc3)no2)ccc1NCc1ccco1	inconclusive: -30.7%
Cc1cc(=O)n2[nH]c(CCC(=O)O)nc2n1	inconclusive: -34%
CC(C)n1ncc2c(C(=O)Nc3ccc(S(C)(=O)=O)cc3)cc(C3CC3)nc21	inactive: 2.85%
O=C(NCC1CCCO1)C1CCCN(S(=O)(=O)c2ccc(Br)cc2)C1 (stereo not given)	inconclusive: -32.1%
Cc1cccnc1NC(=O)CCNS(=O)(=O)c1ccc2c(c1)c(=O)n(C)c(=O)n2C	inactive: -1.26%
O=c1c2sc3ccccc3c2n(Cc2ccccc2)c(=O)n1Cc1ccccc1	inactive: -0.574%
COc1ccc([C@@H]2[C@@H]3C(=O)N(C(C)(C)C)C(=O)[C@@H]3[C@]3(Cc4ccc(Cl)cc4)C(=O)N(c4cccc(F)c4)C(=O)N23)cc1	inconclusive: -30.7%
